The source of these data is paper PMC4664405.

Protein sequences, listed by entry. Tags and fused reporters are not part of them. Lines headed by an entry give the natural chain unless they say otherwise; changes in a name come on top. Residues count along the entry.
UniProt P07237, residues 18-508: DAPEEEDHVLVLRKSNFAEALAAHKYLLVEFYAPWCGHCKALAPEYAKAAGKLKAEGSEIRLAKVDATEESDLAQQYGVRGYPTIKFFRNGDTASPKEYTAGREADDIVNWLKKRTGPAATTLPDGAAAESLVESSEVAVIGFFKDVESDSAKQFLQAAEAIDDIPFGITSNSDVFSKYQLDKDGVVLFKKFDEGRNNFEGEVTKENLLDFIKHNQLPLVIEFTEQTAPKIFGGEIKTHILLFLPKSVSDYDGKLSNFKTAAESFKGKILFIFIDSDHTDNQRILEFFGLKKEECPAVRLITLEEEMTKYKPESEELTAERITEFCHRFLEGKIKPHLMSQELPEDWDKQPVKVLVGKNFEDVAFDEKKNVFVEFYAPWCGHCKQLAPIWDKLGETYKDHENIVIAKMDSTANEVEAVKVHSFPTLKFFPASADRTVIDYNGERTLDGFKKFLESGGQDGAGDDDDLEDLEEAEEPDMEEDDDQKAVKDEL
UniProt P19686: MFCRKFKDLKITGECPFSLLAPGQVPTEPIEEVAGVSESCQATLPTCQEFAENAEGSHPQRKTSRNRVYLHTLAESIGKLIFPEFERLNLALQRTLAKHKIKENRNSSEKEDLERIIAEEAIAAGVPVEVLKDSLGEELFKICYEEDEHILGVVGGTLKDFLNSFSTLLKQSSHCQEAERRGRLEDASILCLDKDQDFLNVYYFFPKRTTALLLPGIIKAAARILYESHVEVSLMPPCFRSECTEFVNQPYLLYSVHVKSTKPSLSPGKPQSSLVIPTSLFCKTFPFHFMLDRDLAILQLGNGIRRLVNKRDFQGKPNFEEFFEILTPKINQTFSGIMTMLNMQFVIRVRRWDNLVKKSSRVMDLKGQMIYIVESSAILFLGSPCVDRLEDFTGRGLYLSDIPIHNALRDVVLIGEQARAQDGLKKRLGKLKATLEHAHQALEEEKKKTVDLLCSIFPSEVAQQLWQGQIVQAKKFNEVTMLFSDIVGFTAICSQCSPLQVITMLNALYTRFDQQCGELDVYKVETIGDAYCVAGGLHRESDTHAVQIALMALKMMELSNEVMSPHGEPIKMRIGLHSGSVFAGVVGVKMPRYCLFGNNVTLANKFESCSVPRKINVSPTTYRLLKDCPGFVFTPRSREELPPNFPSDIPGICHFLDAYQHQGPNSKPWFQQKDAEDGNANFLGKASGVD

These are yes or no findings as the source states them, for the method shown. In cells and extracts the contact can be indirect. A result given as binding can be weak or reduced; the word gives no strength.

The target in this test is Flag-tagged PDI-WT (UniProt P07237). Kind of test: co-IP; Flag-M2 affinity resin on COS-7 lysates (50 mM TrisHCl, 150 mM NaCl); PDI-Flag co-expressed with one sGC subunit or one α construct; Western blot, densitometry of bound over input. For orientation: Immunoblotting shows a protein as a band on a membrane.

For “sGC α N-terminal deletion (αΔN; amino acids 258–690) (from UniProt P19686) (domain or fragment)”, the binding result is “binds”.

Turning to “sGC α catalytic domain alone (αCatDom; amino acids 466–690) (from UniProt P19686) (domain or fragment)”, the binding result is given as “binds”.
